Measured values taken from the supplement of paper PMC4683952.
Where a name gives a salt, the structure may show the parent alone. The list shows a part of the results. No stated cut-off is given here; in the data, active = 2.5 or more and inactive = the rest. Repeats in this data set agree poorly, so a single value says little.

Test system: Lgr5 (MarsCy1-Lgr5-EGFP, U2OS)
Assay: cell-surface Lgr5 expression (SCi1 fluorescence, background-subtracted) relative to WT control (fold of WT control); higher = more Lgr5 at the plasma membrane
Conditions: U2OS MarsCy1-Lgr5-EGFP stable; treatment time: overnight; library: Prestwick; 20 µM

| Compound | cell-surface Lgr5 expression |
| --- | --- |
| Nc1nc2c(ncn2COC(CO)CO)c(=O)[nH]1 [Ganciclovir] | inactive: 1.74 |
| NCCCCCC(=O)O [Aminocaproic acid] | inactive: 1.63 |
| CN(C)C(=N)NC(=N)N [Metformin hydrochloride] | inactive: 1.62 |
| CC=CC(=O)N(CC)c1ccccc1C [Crotamiton] | inactive: 1.72 |
| CNCCc1ccccn1 [Betahistine mesylate] | active: 3.56 |
| CCN(CC)C(C)CN1c2ccccc2Sc2ccccc21 (centres undefined) [Ethopropazine hydrochloride] | inactive: 2.23 |
| CCCNC(=O)NS(=O)(=O)c1ccc(Cl)cc1 [Chlorpropamide] | inactive: 1.77 |
| N=C(N)NCCCCNC(=N)N [Arcaine sulfate] | inactive: 2.11 |
| Clc1cccc(Cl)c1NC1=NCCN1 [Clonidine hydrochloride] | inactive: 1.09 |
| Cc1cc2nc3c(=O)[nH]c(=O)nc-3n(C[C@H](O)[C@H](O)[C@H](O)CO)c2cc1C [Riboflavine] | inactive: 2.02 |
| O=C1NCC2(CCN(CCc3ccccc3)CC2)O1 [Fenspiride hydrochloride] | inactive: 0.688 |
| C[C@H]1[C@H](C)CC[C@]2(C(=O)O)CC[C@]3(C)C(=CC[C@@H]4[C@@]5(C)CC[C@H](O)C(C)(C)[C@@H]5CC[C@]43C)[C@H]12 [Ursolic acid] | inactive: 0.643 |
| O=C(c1ccc(F)cc1)C1CCN(CCn2c(=O)[nH]c3ccccc3c2=O)CC1 [Ketanserin tartrate hydrate] | inactive: 1.56 |
| CCN(CC)C(=O)c1ccc(O)c(OC)c1 [Ethamivan] | inactive: 1.48 |
| CCC1(c2ccccc2)C(=O)NCNC1=O [Primidone] | inactive: 1.07 |
| CN(C)CCC(c1ccc(Br)cc1)c1ccccn1 (centres undefined) [Brompheniramine maleate] | inactive: 1.32 |
| Nc1ncnc2c1ncn2[C@@H]1O[C@H](CO)[C@@H](O)[C@@H]1O [Vidarabine] | inactive: 1.39 |
| CN1CCN(CC(=O)N2c3ccccc3C(=O)Nc3cccnc32)CC1 [Pirenzepine dihydrochloride] | inactive: 1.06 |
| CN(CCCCCCCCCCN(C)C(=O)Oc1cccc([N+](C)(C)C)c1)C(=O)Oc1cccc([N+](C)(C)C)c1 [Demecarium bromide] | inactive: 2.26 |
| CC(=O)N(CC(O)CO)c1c(I)c(C(=O)NCC(O)CO)c(I)c(C(=O)NCC(O)CO)c1I (centres undefined) [Iohexol] | inactive: 2.05 |
| COC(=O)Nc1nc2cc(Sc3ccccc3)ccc2[nH]1 [Fenbendazole] | inactive: 0.487 |
| NC(Cn1ccc(=O)c(O)c1)C(=O)O (centres undefined) [Mimosine] | inactive: 1.22 |
| C[C@@H]1CCC[C@H](C)N1NC(=O)c1ccc(Cl)c(S(N)(=O)=O)c1 [Clopamide] | inactive: 1.78 |

| Compound | cell-surface Lgr5 expression |
| --- | --- |
| CN[C@H]1CC[C@@H](c2ccc(Cl)c(Cl)c2)c2ccccc21 [Sertraline] | inactive: 1.65 |
| Nc1ccc(S(=O)(=O)Nc2nccs2)cc1 [Sulfathiazole] | inactive: 1.22 |
| CC(CNC1CCCCC1)OC(=O)c1ccccc1 (centres undefined) [Hexylcaine hydrochloride] | inactive: 1.97 |
| CC(C)[N+]1(C)[C@@H]2CC[C@H]1C[C@@H](OC(=O)C(CO)c1ccccc1)C2 (some centres undefined) [Ipratropium bromide] | inactive: 1.66 |
| CCOC1O[C@H]([C@@H](COCc2ccccc2)OCc2ccccc2)[C@H](OCc2ccccc2)[C@H]1O (some centres undefined) [Tribenoside] | inactive: 0.941 |
| CC(=O)Nc1c(I)c(C(=O)N[C@H]2C(O)O[C@H](CO)[C@@H](O)[C@@H]2O)c(I)c(N(C)C(C)=O)c1I (some centres undefined) [Metrizamide] | inactive: 1 |
| CCN(CC)CCNC(=O)c1ccc(N)cc1 [Procainamide hydrochloride] | inactive: 1.78 |
| CC(=O)c1cc2ccccc2oc1=O [3-Acetylcoumarin] | inactive: 2.2 |
| CCCCOc1cc(C(=O)OCCN(CC)CC)ccc1N [Benoxinate hydrochloride] | inactive: 1.3 |
| CC(=O)Nc1nnc(S(N)(=O)=O)s1 [Acetazolamide] | inactive: 1.45 |
| Cc1cc2cc3c(C)cc(=O)oc3c(C)c2o1 [Trioxsalen] | inactive: 1.94 |
| O=C(O)[C@@H]1[C@H]2C[C@H]3c4[nH]c5ccccc5c4CCN3C[C@@H]2CC[C@@H]1O [Yohimbinic acid monohydrate] | inactive: 1.82 |
| COc1cc(CNC(=O)CCCC/C=C/C(C)C)ccc1O [Capsaicin] | inactive: 1.76 |
| CO/N=C(\C(=O)N[C@@H]1C(=O)N2C(C(=O)O)=C(COC(C)=O)CS[C@H]12)c1csc(N)n1 [Cefotaxime sodium salt] | inactive: 1.9 |
| C[C@@H]1C/C=C/C=C/C=C/C=C/[C@H](O[C@@H]2O[C@H](C)[C@@H](O)[C@H](N)[C@@H]2O)C[C@@H]2O[C@](O)(C[C@@H](O)C[C@H]3O[C@@H]3/C=C/C(=O)O1)C[C@H](O)[C@H]2C(=O)O [Natamycin] | inactive: 1.22 |
| CC(C(O)c1ccc(O)cc1)N1CCC(Cc2ccccc2)CC1 (centres undefined) [Ifenprodil tartrate] | inactive: 0.443 |
| CN(C(=O)CN(CCO)CC(=O)N(C)C(C)(C)Cc1ccccc1)C(C)(C)Cc1ccccc1 [Oxethazaine] | inactive: 0.881 |
| Cc1cc(C)nc(NS(=O)(=O)c2ccc(N)cc2)n1 [Sulfamethazine sodium salt] | inactive: 2.25 |
| COc1cc(NS(=O)(=O)c2ccc(N)cc2)ncn1 [Sulfamonomethoxine] | inactive: 2.34 |
| CCCOc1ccccc1-c1nc2[nH]nnc2c(=O)[nH]1 [Zaprinast] | inactive: 1.74 |
| COc1ccc(Cl)cc1C(=O)NCCc1ccc(S(=O)(=O)NC(=O)NC2CCCCC2)cc1 [Glibenclamide] | inactive: 0.547 |
| CC#C[C@]1(O)CC[C@H]2[C@@H]3CCC4=CC(=O)CCC4=C3[C@@H](c3ccc(N(C)C)cc3)C[C@@]21C [Mifepristone] | inactive: 1.51 |
| CCN(CCCCOC(=O)c1ccc(OC)c(OC)c1)C(C)Cc1ccc(OC)cc1 (centres undefined) [Mebeverine hydrochloride] | inactive: 0.822 |

Copied from the list.
Entry of CC=CC(=O)N(CC)c1ccccc1C [Crotamiton] under cell-surface Lgr5 expression: inactive: 1.72
Entry of CCN(CCCCOC(=O)c1ccc(OC)c(OC)c1)C(C)Cc1ccc(OC)cc1 (centres undefined) [Mebeverine hydrochloride] under cell-surface Lgr5 expression: inactive: 0.822
Entry of CCC1(c2ccccc2)C(=O)NCNC1=O [Primidone] under cell-surface Lgr5 expression: inactive: 1.07
Entry of Cc1cc2nc3c(=O)[nH]c(=O)nc-3n(C[C@H](O)[C@H](O)[C@H](O)CO)c2cc1C [Riboflavine] under cell-surface Lgr5 expression: inactive: 2.02
Entry of CC(C(O)c1ccc(O)cc1)N1CCC(Cc2ccccc2)CC1 (centres undefined) [Ifenprodil tartrate] under cell-surface Lgr5 expression: inactive: 0.443
Entry of CCN(CC)C(C)CN1c2ccccc2Sc2ccccc21 (centres undefined) [Ethopropazine hydrochloride] under cell-surface Lgr5 expression: inactive: 2.23

Further results follow.

| Compound | cell-surface Lgr5 expression |
| --- | --- |
| Cc1cc(C(C)(C)C)cc(C)c1CC1=NCCN1 [Xylometazoline hydrochloride] | inactive: 0.851 |
| CC(C)(CO)[C@@H](O)C(=O)NCCC(=O)O [Pantothenic acid calcium salt monohydrate] | inactive: 1.68 |
| CCN(CC)CCOCCOC(=O)C1(c2ccccc2)CCCC1 [Carbetapentane citrate] | inactive: 0.718 |
| N[C@H]1CONC1=O [(S)-(-)-Cycloserine] | inactive: 0.807 |
| CCCCC1C(=O)N(c2ccccc2)N(c2ccc(O)cc2)C1=O (centres undefined) [Oxyphenbutazone] | inactive: 0.896 |
| COc1cc2nc(N3CCN(C(=O)C4COc5ccccc5O4)CC3)nc(N)c2cc1OC (centres undefined) [Doxazosin mesylate] | inactive: 2.19 |
| O=c1c(O)c(-c2ccc(O)cc2)oc2cc(O)cc(O)c12 [Kaempferol] | inactive: 0.978 |
| C=CCOc1ccccc1OCC(O)CNC(C)C (centres undefined) [Oxprenolol hydrochloride] | inactive: 1.21 |
| NC[C@H]1O[C@H](O[C@H]2[C@H](O)[C@@H](O[C@H]3O[C@H](CO)[C@@H](O)[C@H](N)[C@H]3O)[C@H](N)C[C@@H]2N)[C@H](N)C[C@@H]1O [Tobramycin] | inactive: 2.03 |
| Cc1c(N)c(=O)n(-c2ccccc2)n1C [Ampyrone] | inactive: 1.51 |
| CC(C)NCC(O)COc1cccc2[nH]ccc12 (centres undefined) [Pindolol] | inactive: 1.42 |
| OC(CCN1CCCC1)(c1ccccc1)C1CCCCC1 (centres undefined) [Procyclidine hydrochloride] | inactive: 2.35 |
| CC(CN(C)C)CN1c2ccccc2CCc2ccccc21 (centres undefined) [Trimipramine maleate salt] | inactive: 2.18 |
| COC(=O)[C@H]1[C@H]2C[C@H]3c4[nH]c5ccccc5c4CCN3C[C@H]2CC[C@@H]1O [Rauwolscine hydrochloride] | inactive: 1.81 |
| Nc1ncnc2c1ncn2[C@@H]1O[C@@H]2COP(=O)(O)O[C@H]2[C@H]1O [(-)-Adenosine 3',5'-cyclic monophosphate] | inactive: 1.45 |
| C[C@H]1[C@H]2CC[C@H]3[C@@H]4CC=C5C[C@@H](N(C)C)CC[C@]5(C)[C@H]4CC[C@]23CN1C [Conessine] | inactive: 2.23 |
| CC(C)(C)NC(=O)[C@H]1CC[C@H]2[C@@H]3CC[C@H]4NC(=O)C=C[C@]4(C)[C@H]3CC[C@]12C [Finasteride] | inactive: 2.13 |
| Nc1nc(N)c2nc(-c3ccccc3)c(N)nc2n1 [Triamterene] | inactive: 1.25 |
| C=C1CC[C@H](O)C/C1=C/C=C1\CCC[C@]2(C)[C@@H]([C@H](C)/C=C/[C@H](C)C(C)C)CC[C@@H]12 [Calciferol] | inactive: 0.71 |
| CCCCOc1ccc(C(=O)CCN2CCCCC2)cc1 [Dyclonine hydrochloride] | inactive: 1.25 |
| C=C1C(=O)O[C@H]2[C@H]1CC/C(C)=C/CC[C@@]1(C)O[C@@H]21 [Parthenolide] | inactive: 0.51 |
| CN1[C@@H]2CC[C@H]1C[C@@H](OC(=O)C(O)c1ccccc1)C2 (mixture of isomers) [Homatropine hydrobromide (R,S)] | inactive: 1.59 |
| CC(C)(C)CC(C)(C)c1ccc(OCCOCC[N+](C)(C)Cc2ccccc2)cc1 [Benzethonium chloride] | inactive: 1.59 |
